For 62 molecules, AC50 results are on record in PubChem BioAssay AID445 (National Center for Advancing Translational Sciences (NCATS), 2006).

This is one part of the list. Shown are side measurements of this screen, not its main read-out; they come without a call. Most of these compounds were active or inconclusive in the main read-out, so they are no random draw. Words in brackets tell the shape of the fitted curve; partial curves, single points and poor fits give uncertain potencies.

As usually defined, the AC50 is the midpoint of the concentration-response curve, whichever way the signal moves.

The assay in a line: IkB Signaling. Conditions: ABC-DLBCL IkBa-CBG/CBR dual luciferase ratio (green luciferase fused to IkBa over red control in OCI-Ly3 lymphoma cells), 4 h; measured here: control luc red channel unless noted. The method in brief: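 Luminescence ratio of IκBα-fused green versus native red beetle luciferase in OCI-Ly3 cells, 4 h post-doxycycline with compound; red signal alone, scaled from basal (0%) to zero light (-100%), flagged nonspecific or cytotoxic effects.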
In the case of `c1ccc2cc3[nH]c(CN4CCCCC4)nc3cc2c1`, the half-maximal activity concentration (AC50) is 15.8 µM [falling, partial curve].
The value for `Cc1ccc(C(=O)Nc2ccc(-c3nc4ccccc4s3)cc2C)cc1C` was 12.6 µM [rising, partial curve]; that for `C=CCn1c(SCc2cc(=O)n3ccsc3n2)nc2scc(C3CC3)c2c1=O` was 12.6 µM [falling, partial curve]; that for `CCOc1cc(CNC(=O)NC2COc3ccc(OC)cc3C2)cc(OCC)c1OCC` (configuration not stated) was 2.51 µM [falling, partial curve].
The value for `COC(=O)c1ccccc1NC(=O)Nc1nnc(N2CCC(C)CC2)s1` was 15.8 µM [falling, single point].
The value for `Cc1csc2nc(COc3ccccc3NC(=O)c3ccc(C(C)(C)C)cc3)cc(=O)n12` was 12.6 µM [falling, partial curve]; that for `CC(=O)C1=C(c2ccc(C)c(C)c2)N(C(C)=O)n2c(nnc2-c2ccc(Cl)cc2)S1` was 6.31 µM [falling, full curve].
Regarding `O=C(Cn1c(=O)n(-c2ccccc2Cl)c(=O)c2sc3ccccc3c21)NC1CCCCC1`, the AC50 was 20 µM [falling, single point].
The value for `N#Cc1cccc(NC(=O)C2CCN(S(=O)(=O)c3ccc4[nH]c(=O)ccc4c3)CC2)c1` was 20 µM [rising, single point]; that for `Cc1ccccc1-n1nc(CO)c(C(=O)NCc2cccs2)n1` was 3.16 µM [rising, partial curve].
The value for `CCn1c(SCC(=O)Nc2oc(-c3ccccc3)c(-c3ccccc3)c2C#N)nnc1-c1ccco1` was 3.16 µM [falling, full curve, poor fit].
The value for `Cc1ccccc1OC(=O)CSc1nnc(-c2ccc(F)cc2)o1` was 39.8 µM [falling, single point].
As to `Cc1ccc(-c2cc(C(=O)Oc3ccccc3)c3cc(C)ccc3n2)cc1`, the AC50 is 12.6 µM [falling, partial curve].
`Fc1ccc(CSc2nnc(-c3cnccn3)n2Cc2ccco2)cc1`: the AC50 is 12.6 µM [falling, partial curve].
With `Cc1ccc(Cn2nnc3c(=O)[nH]c(C4CCN(S(=O)(=O)c5cc(C)ccc5C)CC4)nc32)cc1`, the AC50 was 15.8 µM [falling, partial curve].
The value for `COc1ccc2nc(NC(=O)c3nc(S(=O)(=O)Cc4cccc(C)c4)ncc3Cl)sc2c1` was 7.94 µM [falling, full curve]; that for `O=C1[C@@H]2C(Cc3ccc(O)cc3)NC3(C(=O)Nc4ccc(F)cc43)[C@@H]2C(=O)N1c1ccc(F)cc1` (some centres not stated) was 6.31 µM [falling, partial curve].
The value for `CCOC(=O)Cn1nc(C)c(NC(=O)COc2ccc(Cl)cc2C)c1C` was 12.6 µM [falling, partial curve].
Consider `Cc1cccc2nc(-c3cccc(NS(=O)(=O)c4ccccc4)c3)cn12`, for which the AC50 was 25.1 µM [falling, single point].
The value for `Cc1ccc(C)c(CSc2nc3ccncc3n2CC(=O)Nc2ccc(N(C)C)cc2)c1` was 7.94 µM [falling, partial curve]; that for `COC(=O)C1=C(CN2CCc3ccccc32)NC(=O)NC1c1cc(C)ccc1C` (configuration not stated) was 25.1 µM [falling, single point].
The value for `Cc1ccc(C)c(Cn2c3ccccc3c3cnn(CC(=O)NCc4ccccc4)c(=O)c32)c1` was 39.8 µM [falling, single point]; that for `Cc1ccc(NC(=O)CSc2nc(-c3ccco3)nc3cc(=O)[nH]n23)cc1C` was 15.8 µM [falling, partial curve]; that for `Fc1ccccc1Cn1c(-c2ccccc2)nc2ccccc21` was 15.8 µM [falling, partial curve].
In the case of `Cc1ccnc(N2CCN(C(=O)CSc3nc4ccccc4nc3N3CCCCC3)CC2)c1`, the AC50 is 3.98 µM [falling, partial curve].
Take `COc1cccc(N2CC(NC(=O)c3cccc(OC)c3OC)CC2=O)c1` (configuration not stated): the AC50 was 20 µM [rising, partial curve].
The value for `Cc1ccccc1OCc1nnc(SCc2cc(=O)c3cccc(F)c3[nH]2)n1C` was 12.6 µM [falling, partial curve, poor fit]; that for `CCn1cc(SCC(=O)NCc2ccc3c(c2)OCO3)c2ccccc21` was 3.16 µM [falling, full curve].
The value for `Cc1ccc(-n2nnc(C(=O)Nc3cc(F)ccc3F)c2C)cc1F` was 10 µM [rising, partial curve].
The value for `O=C(c1ccccc1)N1c2ncnn2C2(CCCCC2)[C@@H]2CCCC[C@@H]21` was 12.6 µM [falling, partial curve]; that for `COc1ccccc1NC(=O)c1sc2nc3c(cc2c1N)CCCCCC3` was 15.8 µM [falling, partial curve].
As for `Cc1ccc2c(c1)C(c1ccc(F)cc1)N(C(=O)c1ccc(OC(C)C)cc1)CC(=O)N2` (configuration not stated), the AC50 was 25.1 µM [falling, partial curve].
The value for `Cn1c(=O)[nH]c(=O)c2c1nc(N1CCNCC1)n2Cc1cccc2ccccc12` was 25.1 µM [rising, partial curve] [measured here: IkB-luc green channel]; that for `Cc1c(NC(=O)c2ccco2)cccc1-c1nc2cccnc2s1` was 15.8 µM [falling, partial curve].
The value for `COc1cc2[nH]c(=O)n(CCCC(=O)N3CCN(c4cccc(C(F)(F)F)c4)CC3)c(=O)c2cc1OC` was 15.8 µM [falling, partial curve].
The value for `COc1ccccc1N1CCN(C(=O)CN2C(=O)COc3ccc(S(=O)(=O)N4CCC(C)CC4)cc32)CC1` was 15.8 µM [falling, partial curve]; that for `COc1ccc(OCc2nnc(SCC(N)=O)n2-c2ccccc2OC)cc1` was 12.6 µM [falling, partial curve].
In the case of `COc1ccc(C(=O)CSc2c(C(C)C)cnc3c2c(=O)n(C)c(=O)n3C)cc1`, the AC50 was 39.8 µM [falling, single point].
The value for `CCOc1ccc(NC(=O)CSc2nc3c(oc4ccccc43)c(=O)n2CCOC)cc1` was 7.94 µM [rising, partial curve].
The value for `Cn1ncc2nc(SCC(=O)Nc3ccc(Br)cc3F)n(Cc3ccccc3)c(=O)c21` was 0.02 µM [falling, full curve, poor fit]; that for `Cc1ccc(NC(=O)C(Cc2c[nH]c3ccccc23)NC(=O)OCC(C)C)cc1` (configuration not stated) was 25.1 µM [falling, single point].
The value for `CC(C)(C)C(=O)NCCc1csc2nc(-c3ccc(F)cc3)nn12` was 0.0794 µM [falling, partial curve, poor fit].
In the case of `CCC(c1nnnn1Cc1ccco1)N(CCc1ccccc1)Cc1cc2cc(C)ccc2[nH]c1=O` (configuration not stated), the AC50 was 25.1 µM [falling, single point].
The value for `COc1ccc2oc(-c3ccc(C)c(NC(=O)COc4cc(C)cc(C)c4)c3)nc2c1` was 3.98 µM [falling, full curve]; that for `CCCOC(=O)c1ccc(Oc2cn[nH]c2-c2ccc(OCC)cc2O)cc1` was 15.8 µM [falling, partial curve]; that for `NC(=NCc1ccc(Cl)c(Cl)c1)NC(=O)c1nc(Cl)c(N)nc1N` was 31.6 µM [falling, partial curve, poor fit] [measured here: IkB-luc green channel].
The value for `O=C(CN1CCCN(Cc2ccccc2Cl)S1(=O)=O)NCc1ccccc1` was 12.6 µM [falling, partial curve].
The value for `Cc1cccn2c(=O)cc(COc3cccc(NC(=O)COc4ccc(F)cc4)c3)nc12` was 2 µM [falling, full curve]; that for `COc1cc(-c2noc(CCC(=O)Nc3cc(C)ccc3C)n2)cc(OC)c1OC` was 31.6 µM [falling, partial curve]; that for `COc1ccc(NC(=O)CCS(=O)(=O)c2ccc3nc(C)sc3c2)cc1Cl` was 20 µM [falling, single point].
Regarding `Cc1ccc(-n2ncc(C(=O)NCCc3c[nH]c4ccccc34)c2C2CCN(C(=O)OC(C)(C)C)CC2)cc1C`, the AC50 was 10 µM [falling, partial curve].
As for `Cc1ccc(OC(=O)CSc2nnc(-c3cccs3)o2)cc1`, the AC50 was 39.8 µM [falling, single point].
The value for `CNC(=O)c1c(NC(=O)/C=C/c2ccccc2Cl)sc2c1CCC2` was 0.0631 µM [falling, full curve].
The value for `Cc1ccccc1C(=O)N(Cc1nc(-c2ccc(Cl)cc2)no1)C(C)C` was 25.1 µM [falling, single point].
The value for `CC(NC(=O)CN(c1ccc(Cl)cc1Cl)S(=O)(=O)c1ccccc1)c1ccccc1` (configuration not stated) was 15.8 µM [falling, partial curve].
As for `CCN(CC)C(=O)CSC(=Nc1ccccc1F)NC#N`, the AC50 is 0.794 µM [falling, partial curve].
The value for `CC1CCCC(NC(=O)c2n[nH]c(=O)c3ccccc23)C1C` (configuration not stated) was 0.158 µM [falling, full curve]; that for `CCCN(CCC)CCCNC(=O)Cn1ncc2c3ccccc3n(Cc3ccccc3)c2c1=O` was 15.8 µM [falling, partial curve]; that for `Cc1nc(-c2ccc(Cl)cc2)sc1CCNC(=O)c1cccs1` was 39.8 µM [falling, single point].
For `CCCOc1ccc(-c2nc(SC)[nH]c(=O)c2C#N)cc1OC`, the AC50 is 10 µM [falling, partial curve, poor fit].
`O=C(c1ccc2c(c1)N(Cc1ccccc1)C(=O)c1ccccc1S2(=O)=O)N1CCCCCC1`: the AC50 is 15.8 µM [falling, partial curve].
The value for `Cc1ccc(S(=O)(=O)c2c(Nc3cc(F)ccc3F)sc(C(=O)c3ccc(F)cc3)c2N)cc1` was 7.94 µM [falling, full curve].
